{"source": "patent US5116851A", "about": "“Pharmaceutical composition and method for treating cardiovascular diseases using substituted anilides and sulfonamides” (E. R. Squibb & Sons, Inc., priority 1990, dated 1992)", "system": "Ischemic and Nonischemic Isolated Rat Heart", "assay": "Isolated perfused rat heart (Langendorff), global ischemia/reperfusion: cardiac function, flow and LDH release", "design": "species or system rat (male Sprague-Dawley)", "conditions": "post-ischemia LDH, 1 μM", "protocol": "Lactate dehydrogenase is an enzyme released in the heart during an ischemic event and is an index of cardiac cell necrosis. In the Grover et al. model, this is measured during reperfusion and an agent which provides for lower release levels of LDH is considered to offer greater cardioprotection since lower LDH indicates a smaller infarct size. Cardiac function is determined using the double product (DP) of heart rate times the left ventricular developed pressure (LVDP) divided by 1,000.\nThe lower the value for DP before ischemia for a given agent, the more cardiodepressant it is considered to be.\nMale Sprague-Dawley rats (450-550 g) were used in all experiments. The rats were anesthetized using 30 mg/kg sodium pentobarbital (i.p.). They were intubated and then treated with i.v. heparin (1000 U/kg). While being mechanically ventilated, their hearts were perfused in situ via retrograde cannulation of the aorta. The hearts were then excised and quickly moved to a Langendorff apparatus where they were perfused with Krebs-Henseleit bicarbonate buffer (112 mM NaCl, 5 mM KCl, 1.2 mMMg SO4, 1 mM KH2 PO4, 1.25 mM CaCl2, 11.5 mM dextrose, and 2 mM pyruvate) at a constant pressure (75 mm Hg). A water filled latex balloon attached to a metal cannula was then inserted into the left ventricle and connected to a Statham pressure transducer for measurement of left ventricular pressure. The hearts were allowed to equilibrate for 15 minutes at which time end diastolic pressure (EDP) was adjusted to 5 mm Hg and this was maintained for 5 minutes. Pre-ischemia or pre-drug function, heart rate and coronary blood flow (extracorporeal electromagnetic flow probe, Carolina Medical Electronics, King, N.C.) were then measured. Cardiac function was determined using the double product of heart rate (HR) times left ventricular developed pressure (LVDP) divided by 1,000.\nAll of these hearts were treated with their respective drugs or vehicle for ten minutes. At this time, post-drug cardiac function and flow were measured and then the hearts were made globally ischemic by shutting off the buffer perfusion. The ischemia was maintained for 25 minutes at which time reperfusion with nondrug treated buffer was instituted. Reperfusion was maintained for 30 minutes and at this time reperfusion function and flow were again determined.\nAt the end of the reperfusion period, the reperfusion buffer was sampled for cumulative LDH release as previously described. LDH release was expressed as U/g preischemia heart weight for the 30 minute collection period. LDH release is a sensitive index for loss of cell viability. […]\nAll data were analyzed using a one way analysis of variance. […] All data are expressed as the mean±SE. […]", "note": "Structures can show the parent of a compound that is named as a salt. At least one compound was matched to its structure with a doubt left. Some results were stated once for a whole list of compounds, not compound by compound.", "data": [{"smiles": "COc1cc(SCc2ccccc2)c(N(CCCN(C)C)C(=O)Cc2ccccc2)cc1OC", "note": "[Example 8, N-[3-(Dimethylamino)propyl]-N-[4,5-dimethoxy-2-sulfonyl),[(phenylmethyl)thio]phenyl]benzeneacetamide, oxalate (1:1) salt]", "values": [{"measurement": "cardioprotection compared with diltiazem", "result": "offered more cardioprotection than diltiazem"}]}, {"smiles": "CN(C)CCCN(C(=O)c1ccccc1)c1ccccc1SCc1ccccc1.Cl", "note": "[Example 7, 2'-(Benzylthio)-N-[3-(dimethylamino)propyl]benzanilide, hydrochloride]", "values": [{"measurement": "cardioprotection compared with diltiazem", "result": "offered more cardioprotection than diltiazem"}]}, {"smiles": "CN(C)CCCN(C(=O)Cc1ccccc1)c1ccccc1OCc1ccccc1.O=C(O)C(=O)O", "note": "[Example 6, N-[3-(Dimethylamino)propyl]-N-[2-(phenylmethoxy)phenyl]benzeneacetamide, oxalate salt (1:1)]", "values": [{"measurement": "cardioprotection compared with diltiazem", "result": "offered more cardioprotection than diltiazem"}]}, {"smiles": "COc1ccc(CSc2ccccc2N(CCCN(C)C)C(=O)Cc2ccccc2)cc1", "note": "[Example 2, N-[3-(Dimethylamino)propyl]-N-[2-[[(4-methoxyphenyl)methyl]thio]phenyl]benzeneacetamide, monohydrochloride]", "values": [{"measurement": "cardioprotection compared with diltiazem", "result": "comparable to diltiazem in cardioprotection"}]}]}
